Results are given in words; binding and its absence hold for the method and conditions named. In cells and extracts the contact can be indirect. Binding can be weak; no strength is given.

Sequences of proteins named here, by UniProt entry; tags and fusion partners are left off. A change or cut given only in a name is not applied to a line headed by its entry.
UniProt Q6P5Z2: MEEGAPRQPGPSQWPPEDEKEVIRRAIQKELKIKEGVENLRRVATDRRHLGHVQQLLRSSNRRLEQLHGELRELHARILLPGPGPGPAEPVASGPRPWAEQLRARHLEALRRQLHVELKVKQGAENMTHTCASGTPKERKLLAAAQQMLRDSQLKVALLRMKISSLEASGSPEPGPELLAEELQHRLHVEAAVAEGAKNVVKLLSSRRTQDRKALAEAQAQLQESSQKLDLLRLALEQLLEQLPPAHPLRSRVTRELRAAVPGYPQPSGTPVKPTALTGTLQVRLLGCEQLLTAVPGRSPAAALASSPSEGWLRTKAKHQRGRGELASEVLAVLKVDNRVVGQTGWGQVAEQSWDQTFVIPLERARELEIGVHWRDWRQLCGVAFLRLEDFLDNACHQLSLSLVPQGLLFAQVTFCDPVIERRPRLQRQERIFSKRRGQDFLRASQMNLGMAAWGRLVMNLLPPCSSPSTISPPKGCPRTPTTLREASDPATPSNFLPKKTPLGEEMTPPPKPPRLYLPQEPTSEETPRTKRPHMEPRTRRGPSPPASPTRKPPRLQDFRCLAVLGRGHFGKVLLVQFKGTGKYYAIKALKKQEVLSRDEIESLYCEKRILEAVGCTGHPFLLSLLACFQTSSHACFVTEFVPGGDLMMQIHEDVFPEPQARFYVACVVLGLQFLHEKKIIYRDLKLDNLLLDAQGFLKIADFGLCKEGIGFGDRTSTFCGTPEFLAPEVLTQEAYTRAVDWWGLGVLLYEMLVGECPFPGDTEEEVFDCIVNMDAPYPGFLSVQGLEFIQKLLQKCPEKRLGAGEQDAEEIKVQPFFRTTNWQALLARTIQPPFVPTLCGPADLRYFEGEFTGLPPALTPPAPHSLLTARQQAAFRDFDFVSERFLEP
UniProt Q8N392: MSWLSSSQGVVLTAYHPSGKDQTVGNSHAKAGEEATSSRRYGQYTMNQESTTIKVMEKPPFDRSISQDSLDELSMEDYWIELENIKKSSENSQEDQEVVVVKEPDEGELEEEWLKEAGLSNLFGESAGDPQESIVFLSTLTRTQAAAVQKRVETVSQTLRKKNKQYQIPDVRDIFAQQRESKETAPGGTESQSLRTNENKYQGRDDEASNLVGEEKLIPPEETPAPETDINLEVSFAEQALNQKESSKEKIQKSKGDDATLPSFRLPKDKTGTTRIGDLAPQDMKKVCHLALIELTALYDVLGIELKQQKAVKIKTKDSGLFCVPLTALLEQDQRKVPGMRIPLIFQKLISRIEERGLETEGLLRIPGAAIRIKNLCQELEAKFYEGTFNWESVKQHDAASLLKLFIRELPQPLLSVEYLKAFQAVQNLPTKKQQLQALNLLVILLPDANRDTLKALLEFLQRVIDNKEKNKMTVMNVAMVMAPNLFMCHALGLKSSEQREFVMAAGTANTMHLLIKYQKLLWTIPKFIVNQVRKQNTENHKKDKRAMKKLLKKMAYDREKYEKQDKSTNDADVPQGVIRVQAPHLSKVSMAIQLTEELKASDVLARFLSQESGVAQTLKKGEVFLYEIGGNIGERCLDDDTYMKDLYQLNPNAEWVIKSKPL

The experiment has as its target Flag-PKN3 WT (protein kinase N3) (human) (UniProt Q6P5Z2). Put plainly: co-IP; Flag-PKN3 precipitated with Anti-Flag Affinity Gel from lysates of transfected MDA-MB-231 cells (1% Triton X-100 in TBS, 50 mM Tris-HCl pH 7.1, 150 mM NaCl), 3 h, 4 °C; GFP-ARHGAP18 variants detected by immunoblot. (In general: In western blotting, separated proteins are transferred to a membrane and probed.)

For “GFP-ARHGAP18 ΔC525 (from UniProt Q8N392) (domain or fragment)”, the binding result is “binds”. For the substance GFP-ARHGAP18 ΔGAP (from UniProt Q8N392), the binding entry is given as “binds”.

These data come from PMC7594087.
